{"source": "the supplement of paper PMC8728848", "binders": {"B1": {"name": "SJCP1531 (Schistosoma japonicum) (protein)", "chain": "MFKVRIINLVNISTVLLLINLLQTKSQVNVEQLVTVLEVNIKAQLKNKTTEVLVEWNPLYQDNSMPEYRKLLDETCKLFLPFVNEKVPPSTYGGECTNANFSEAPQDGSYSRVNAELRLIYKYSDNPQIQTDRLQDDLNDREEFITSESSFVAYNPKFTVKIEKLFIPISESQTTPPPTTAKNDASKKDDDDNGGEDSKAPIDTFAMTASGNKGKKDDDDNGGEDSKAPIDTFAMTASGSKDERSTWTIIGIITLVVLIFVVIGGGITVFVKRC"}}, "test_in_all_cases": "glycan array binding signal (z-score within array); higher = stronger binding", "conditions_in_all_cases": "glycan notation: IUPAC condensed, linker removed", "key": {"[1]": {"molecular_target": "Fuc(a1-2)Gal(b1-4)[Fuc(a1-3)]GlcNAc(b1-2)Man(a1-3)[Fuc(a1-2)Gal(b1-4)[Fuc(a1-3)]GlcNAc(b1-2)Man(a1-6)]Man(b1-4)GlcNAc(b1-4)[Fuc(a1-6)]GlcNAc", "procedure,_shortened": "(§1)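 The Consortium for Functional Glycomics database supplied 3228 glycan arrays, of which those lacking an available protein sequence were dropped. The binding signal, a within-array Z-score, was averaged across arrays of the same protein sequence and across linkers. Negative scores can be read as non-binding.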"}, "[2]": {"molecular_target": "Fuc(a1-2)Gal(b1-4)[Fuc(a1-3)]GlcNAc(b1-2)[Fuc(a1-2)Gal(b1-4)[Fuc(a1-3)]GlcNAc(b1-4)]Man(a1-3)[Fuc(a1-2)Gal(b1-4)[Fuc(a1-3)]GlcNAc(b1-2)Man(a1-6)]Man(b1-4)GlcNAc(b1-4)GlcNAc", "procedure,_shortened": "as §1"}, "[3]": {"molecular_target": "Fuc(a1-2)Gal(b1-4)[Fuc(a1-3)]GlcNAc(b1-3)Gal(b1-4)[Fuc(a1-3)]GlcNAc", "procedure,_shortened": "as §1"}, "[4]": {"molecular_target": "Fuc(a1-2)Gal(b1-4)[Fuc(a1-3)]GlcNAc(b1-3)Gal(b1-4)[Fuc(a1-3)]GlcNAc(b1-3)Gal(b1-4)[Fuc(a1-3)]GlcNAc", "procedure,_shortened": "as §1"}, "[5]": {"molecular_target": "Fuc(a1-2)Gal(b1-4)[Fuc(a1-3)]GlcNAc(b1-3)GalNAc", "procedure,_shortened": "as §1"}, "[6]": {"molecular_target": "Fuc(a1-2)Gal(b1-4)[Fuc(a1-3)]GlcNAc(b1-3)[Neu5Ac(a2-6)Gal(b1-4)GlcNAc(b1-6)]Gal(b1-4)Glc", "procedure,_shortened": "as §1"}, "[7]": {"molecular_target": "Fuc(a1-2)Gal3S(b1-4)GlcNAc", "procedure,_shortened": "as §1"}, "[8]": {"molecular_target": "Fuc(a1-2)Gal6S(b1-3)GlcNAc", "procedure,_shortened": "as §1"}, "[9]": {"molecular_target": "Fuc(a1-2)Gal6S(b1-3)GlcNAc6S", "procedure,_shortened": "as §1"}, "Fuc(a1-2)Gal6S(b1-4)Glc": {"molecular_target": "Fuc(a1-2)Gal6S(b1-4)Glc", "procedure,_shortened": "as §1"}, "[10]": {"molecular_target": "Fuc(a1-2)Gal6S(b1-4)Glc6S", "procedure,_shortened": "as §1"}, "Fuc(a1-2)[Gal(a1-3)]Gal": {"molecular_target": "Fuc(a1-2)[Gal(a1-3)]Gal", "procedure,_shortened": "as §1"}, "[11]": {"molecular_target": "Fuc(a1-2)[Gal(a1-3)]Gal(b1-3)GalNAc", "procedure,_shortened": "as §1"}, "[12]": {"molecular_target": "Fuc(a1-2)[Gal(a1-3)]Gal(b1-3)GalNAc(b1-3)Gal(a1-4)Gal(b1-4)Glc", "procedure,_shortened": "as §1"}, "[13]": {"molecular_target": "Fuc(a1-2)[Gal(a1-3)]Gal(b1-3)GlcNAc", "procedure,_shortened": "as §1"}, "[14]": {"molecular_target": "Fuc(a1-2)[Gal(a1-3)]Gal(b1-3)GlcNAc(b1-2)Man(a1-3)[Fuc(a1-2)[Gal(a1-3)]Gal(b1-3)GlcNAc(b1-2)Man(a1-6)]Man(b1-4)GlcNAc(b1-4)GlcNAc", "procedure,_shortened": "as §1"}, "[15]": {"molecular_target": "Fuc(a1-2)[Gal(a1-3)]Gal(b1-3)GlcNAc(b1-2)Man(a1-3)[Fuc(a1-2)[Gal(a1-3)]Gal(b1-3)GlcNAc(b1-2)Man(a1-6)]Man(b1-4)GlcNAc(b1-4)[Fuc(a1-6)]GlcNAc", "procedure,_shortened": "as §1"}, "[16]": {"molecular_target": "Fuc(a1-2)[Gal(a1-3)]Gal(b1-3)GlcNAc(b1-3)GalNAc", "procedure,_shortened": "as §1"}, "[17]": {"molecular_target": "Fuc(a1-2)[Gal(a1-3)]Gal(b1-3)GlcNAc(b1-6)GalNAc", "procedure,_shortened": "as §1"}, "[18]": {"molecular_target": "Fuc(a1-2)[Gal(a1-3)]Gal(b1-4)Glc", "procedure,_shortened": "as §1"}, "[19]": {"molecular_target": "Fuc(a1-2)[Gal(a1-3)]Gal(b1-4)GlcNAc", "procedure,_shortened": "as §1"}, "[20]": {"molecular_target": "Fuc(a1-2)[Gal(a1-3)]Gal(b1-4)GlcNAc(b1-2)Man", "procedure,_shortened": "as §1"}, "[21]": {"molecular_target": "Fuc(a1-2)[Gal(a1-3)]Gal(b1-4)GlcNAc(b1-2)Man(a1-3)[Fuc(a1-2)[Gal(a1-3)]Gal(b1-4)GlcNAc(b1-2)Man(a1-6)]Man(b1-4)GlcNAc(b1-4)GlcNAc", "procedure,_shortened": "as §1"}, "[22]": {"molecular_target": "Fuc(a1-2)[Gal(a1-3)]Gal(b1-4)GlcNAc(b1-2)Man(a1-3)[Fuc(a1-2)[Gal(a1-3)]Gal(b1-4)GlcNAc(b1-2)Man(a1-6)]Man(b1-4)GlcNAc(b1-4)[Fuc(a1-6)]GlcNAc", "procedure,_shortened": "as §1"}, "[23]": {"molecular_target": "Fuc(a1-2)[Gal(a1-3)]Gal(b1-4)GlcNAc(b1-3)GalNAc", "procedure,_shortened": "as §1"}, "[24]": {"molecular_target": "Fuc(a1-2)[Gal(a1-3)]Gal(b1-4)GlcNAc(b1-3)[Fuc(a1-2)[Gal(a1-3)]Gal(b1-4)GlcNAc(b1-6)]GalNAc", "procedure,_shortened": "as §1"}, "[25]": {"molecular_target": "Fuc(a1-2)[Gal(a1-3)]Gal(b1-4)GlcNAc(b1-6)GalNAc", "procedure,_shortened": "as §1"}, "[26]": {"molecular_target": "Fuc(a1-2)[Gal(a1-3)]Gal(b1-4)[Fuc(a1-3)]Glc", "procedure,_shortened": "as §1"}, "[27]": {"molecular_target": "Fuc(a1-2)[Gal(a1-3)]Gal(b1-4)[Fuc(a1-3)]GlcNAc", "procedure,_shortened": "as §1"}, "[28]": {"molecular_target": "Fuc(a1-2)[Gal(a1-3)]Gal(b1-4)[Fuc(a1-3)]GlcNAc(b1-3)GalNAc", "procedure,_shortened": "as §1"}, "[29]": {"molecular_target": "Fuc(a1-2)[Gal(a1-4)]Gal(b1-4)GlcNAc", "procedure,_shortened": "as §1"}, "[30]": {"molecular_target": "Fuc(a1-2)[GalNAc(a1-3)]Gal", "procedure,_shortened": "as §1"}, "[31]": {"molecular_target": "Fuc(a1-2)[GalNAc(a1-3)]Gal(b1-3)GalNAc(a1-3)[Fuc(a1-2)]Gal(b1-4)GlcNAc", "procedure,_shortened": "as §1"}, "[32]": {"molecular_target": "Fuc(a1-2)[GalNAc(a1-3)]Gal(b1-3)GalNAc(b1-3)Gal(a1-4)Gal(b1-4)Glc", "procedure,_shortened": "as §1"}, "[33]": {"molecular_target": "Fuc(a1-2)[GalNAc(a1-3)]Gal(b1-3)GlcNAc", "procedure,_shortened": "as §1"}, "[34]": {"molecular_target": "Fuc(a1-2)[GalNAc(a1-3)]Gal(b1-3)GlcNAc(b1-2)Man(a1-3)[Fuc(a1-2)[GalNAc(a1-3)]Gal(b1-3)GlcNAc(b1-2)Man(a1-6)]Man(b1-4)GlcNAc(b1-4)GlcNAc", "procedure,_shortened": "as §1"}, "[35]": {"molecular_target": "Fuc(a1-2)[GalNAc(a1-3)]Gal(b1-3)GlcNAc(b1-2)Man(a1-3)[Fuc(a1-2)[GalNAc(a1-3)]Gal(b1-3)GlcNAc(b1-2)Man(a1-6)]Man(b1-4)GlcNAc(b1-4)[Fuc(a1-6)]GlcNAc", "procedure,_shortened": "as §1"}, "[36]": {"molecular_target": "Fuc(a1-2)[GalNAc(a1-3)]Gal(b1-3)GlcNAc(b1-3)GalNAc", "procedure,_shortened": "as §1"}}, "note": "Some of the results follow."}
{"binder": "B1", "values": [{"measurement": "glycan array binding signal (z-score)", "setting": "[1]", "value": 0.902}, {"measurement": "glycan array binding signal (z-score)", "setting": "[2]", "value": 0.874}, {"measurement": "glycan array binding signal (z-score)", "setting": "[3]", "value": -0.003}, {"measurement": "glycan array binding signal (z-score)", "setting": "[4]", "value": 0.243}, {"measurement": "glycan array binding signal (z-score)", "setting": "[5]", "value": -1.64}, {"measurement": "glycan array binding signal (z-score)", "setting": "[6]", "value": -0.122}, {"measurement": "glycan array binding signal (z-score)", "setting": "[7]", "value": -0.935}, {"measurement": "glycan array binding signal (z-score)", "setting": "[8]", "value": 0.487}, {"measurement": "glycan array binding signal (z-score)", "setting": "[9]", "value": -1.24}, {"measurement": "glycan array binding signal (z-score)", "setting": "Fuc(a1-2)Gal6S(b1-4)Glc", "value": 0.605}, {"measurement": "glycan array binding signal (z-score)", "setting": "[10]", "value": -0.261}, {"measurement": "glycan array binding signal (z-score)", "setting": "Fuc(a1-2)[Gal(a1-3)]Gal", "value": 0.637}, {"measurement": "glycan array binding signal (z-score)", "setting": "[11]", "value": -0.135}, {"measurement": "glycan array binding signal (z-score)", "setting": "[12]", "value": -0.741}, {"measurement": "glycan array binding signal (z-score)", "setting": "[13]", "value": 1.16}, {"measurement": "glycan array binding signal (z-score)", "setting": "[14]", "value": -0.108}, {"measurement": "glycan array binding signal (z-score)", "setting": "[15]", "value": 0.774}, {"measurement": "glycan array binding signal (z-score)", "setting": "[16]", "value": -1.19}, {"measurement": "glycan array binding signal (z-score)", "setting": "[17]", "value": -0.582}, {"measurement": "glycan array binding signal (z-score)", "setting": "[18]", "value": 0.437}, {"measurement": "glycan array binding signal (z-score)", "setting": "[19]", "value": -0.849}, {"measurement": "glycan array binding signal (z-score)", "setting": "[20]", "value": 0.387}, {"measurement": "glycan array binding signal (z-score)", "setting": "[21]", "value": 0.761}, {"measurement": "glycan array binding signal (z-score)", "setting": "[22]", "value": 1.76}, {"measurement": "glycan array binding signal (z-score)", "setting": "[23]", "value": -0.383}, {"measurement": "glycan array binding signal (z-score)", "setting": "[24]", "value": -0.164}, {"measurement": "glycan array binding signal (z-score)", "setting": "[25]", "value": -1.02}, {"measurement": "glycan array binding signal (z-score)", "setting": "[26]", "value": -0.555}, {"measurement": "glycan array binding signal (z-score)", "setting": "[27]", "value": 0.277}, {"measurement": "glycan array binding signal (z-score)", "setting": "[28]", "value": 0.545}, {"measurement": "glycan array binding signal (z-score)", "setting": "[29]", "value": 0.12}, {"measurement": "glycan array binding signal (z-score)", "setting": "[30]", "value": -0.36}, {"measurement": "glycan array binding signal (z-score)", "setting": "[31]", "value": -0.433}, {"measurement": "glycan array binding signal (z-score)", "setting": "[32]", "value": -1.4}, {"measurement": "glycan array binding signal (z-score)", "setting": "[33]", "value": 1.26}, {"measurement": "glycan array binding signal (z-score)", "setting": "[34]", "value": 0.166}, {"measurement": "glycan array binding signal (z-score)", "setting": "[35]", "value": 0.319}, {"measurement": "glycan array binding signal (z-score)", "setting": "[36]", "value": -0.335}]}
